## Assay results

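Luminescence from an EWS-FLI1 target-promoter (NR0B1) reporter, set against a CMV-promoter reporter, two days after silencing single genes in TC32 Ewing sarcoma cells. Each siRNA was applied at 20 nM. A z-score of the log NR0B1-over-CMV signal, less the median of siRNAs with the same seed; more negative means a stronger specific loss of the NR0B1 reporter.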

The strongest results of the screen are mostly left out here. Sequences are the guide (antisense) strand, without overhang.

Sequence | gene | seed-corrected z-score
AAAUUGAAUAGAAGAAGCC | BCL6B | 0.1861
UCUAUGUAGAGAUCUGUCC | ARHGAP31 | 0.2992
AGGUGUUUAAGACUAUUCC | MUC22 | -0.8494
UUGGUUAAAGUGUGAUACC | BAG5 | -0.5572
UCCUUUAGCAUGGAUGGUG | DCLRE1B | 0.2646
UCUAUACUGAACAUGGUUG | SPINK9 | 0.3217
AGUGAUGUCAAUGAGAGCC | NCKIPSD | 1.264
UUUACCAUCACAAGUGAUG | FABP5 | 0.2526
UGUGGUAAGAUGUACAUGU | CRYGS | 0.9148
AAUACAGCAAGAUCACCGC | ANAPC2 | 1.351
UUCGUUCAAACUGACCACG | TTLL4 | 1.787
UCACCUUCUUGUAAGGGCC | METAP1 | -0.0434
UUCGGGUUGAGUUGGUCAG | AKNAD1 | 0.9725
AAAUCGAACAGGACUCUGG | USP30 | 0.3099
UAUUAGUACCAAUAACUGC | MOAP1 | -0.1164
UAGUGGAAGACCGUGGGCU | ACPT | -0.315
ACAGCAACUAGUCCAAGGG | C4orf32 | -0.08849
UUUAGUACUUCAACUGAUU | IL9 | -0.5327
UCCCUGUCACGGACUUUCC | TPPP3 | 1.28
UUUUUCGUAACAACUGCUG | DDIAS | 0.3475
UCCCAUGCCACCAAAGUAG | DCAF12L2 | -0.982
UCUGAAUGGUCUGAGAUCC | S100PBP | -1.611
UAAGGUAGCACACUGGAUC | CSF1 | 0.5017
UGCUUUCUCAGCAUACUUC | ARSG | -0.4198
AUCCUUGAUACAUAGCUUG | MRPS30 | -0.2401
AAACUUAUCACAUCGCUCC | ADNP2 | 1.242
UGCAUUUGGAUUCAGAUUG | PAIP2 | 0.7267
UCCCUUGAAAUGGCGCUGG | ATP5G2 | -1.161
UCGGAGUUGACUCAAUGCC | ZNF287 | -1.247
UCCUUAACCAUGAUGCCUG | GLDN | -0.6657
UAUCCGCAUCCAUAAAUCC | RWDD3 | 0.6735
UGAGGUCUCAUAGCGUGAC | E2F1 | -1.17
UUUUGCACAAGAGGAACCC | COA6 | 0.01179
UUUGAUAAAGGAAUGAACG | C19orf66 | 1.078
AUGUUUUCCAUUGAAGUUC | L3MBTL4 | 0.1109
AGAAUUACAGUGAGGCUCC | NDUFA3P3 | 1.915
UCCUUGAUGAGAAGGUAGU | CCL19 | -0.06915
UUCUUGAGCACUGAGGUGG | CD81 | -0.369
AGAGGUCACGUCGUUCACC | CDX4 | -0.1313
UUCCUUCUGUGACCGGUCC | ZNF446 | -0.4622
UUUACGAGUACAACACUCU | RPS8 | 1.23
UGAUUGUCACGUGAUACCG | KLF16 | -0.1305
UGAAGUUCCUUACAGCUGC | USP32 | -0.4981
UCAGGAAAGCAGGCUCAGC | SPATA2L | 0.5836
UAGGAGAUAAAUAUCAGGC | OR10J5 | 1.375
UUUCUGUAGAAAUCUGCGU | COX6C | -0.7806
AAUUUAUCUAUCCCAAUGC | ADK | -0.1164
UCAGCUUGCAGUAUCUCAG | IL5RA | 0.2986
UUCAUGCCUAGUUCAAUCU | RMND5B | -0.1432
UCUUAGGAGAGGGCUCACC | HMGA2 | -0.7285
UUCUGCAGACAUACCAGCC | GSTK1 | -0.5342
UAGAGAACUAAGGUUGUGG | CD276 | 0.6023
UUUCGAGCUUCAGUACACG | WDR17 | -0.9701
UUGGGUAGAAUGGUGCCGG | CELA2B | -1.571
UUAACUUGAACACUGUCAC | CT47A11 | 0.4204
UCAGUUCAAAGAACACCAG | TMED1 | 0.2147
UGAGGACUCUGCAUUGUCU | MRAP2 | -0.1326
UGGGCCUUAAGGUAAUCAG | CYSRT1 | -0.1556
AUCCGAACAAAACACCUCC | SV2C | 0.4179
UCAUCUAGUAAGAGAGUCC | EDRF1 | 0.7233
UAUGUGAGUUCCAUAUUCC | CELSR3 | -0.2536
UCUUCAUUGUCUAUCUUUC | TCEAL2 | -0.2969
UCUGAGAUUAGUUAACUUC | ABCC6P1 | 0.04868
UUAAUUCCCGGCUCUUCUC | IER3IP1 | -0.8096
UUUGAGAUUUGGAAAGUCC | OR4K13 | 0.01574
UAAUGGACCGAAAUCUCUC | RAB30 | 0.08552
UUCAGUGUAGCAAUGAUUU | CXCL9 | 1.03
UCAUUAUGAAUUUCUUCUC | FTO | -0.4975
AUUCUUCCUAUUCCCGUUG | OXLD1 | -1.689
AGAUAUCCAAAUAUCGUUG | DPP8 | 0.5134
UACCCAAUCUGUAUCCUCC | UBXN2B | 0.2703
UCCCUGAUUUCAGAUCUCC | TP53BP1 | 0.09724
AAUAGGAACAGGUUACAGC | CALML3 | -0.4717

7 of the entries, repeated:

| Sequence | gene | seed-corrected z-score |
|---|---|---|
| `UUCGGGUUGAGUUGGUCAG` | AKNAD1 | 0.9725 |
| `UAUGUGAGUUCCAUAUUCC` | CELSR3 | -0.2536 |
| `AUCCUUGAUACAUAGCUUG` | MRPS30 | -0.2401 |
| `UCUUAGGAGAGGGCUCACC` | HMGA2 | -0.7285 |
| `UCUGAAUGGUCUGAGAUCC` | S100PBP | -1.611 |
| `UGAAGUUCCUUACAGCUGC` | USP32 | -0.4981 |
| `UCAGUUCAAAGAACACCAG` | TMED1 | 0.2147 |

Source: PubChem BioAssay AID1159506 (NCATS, 2015).